According to PubChem BioAssay AID1656 (Sanford-Burnham Center for Chemical Genomics, 2009):
Several values for one entry are separate records, joined by “and”; a condition that tells them apart may be missing. Equal values may be shown once. This is one part of the list. Some salts and complexes are drawn in separate pieces, as the source files them; their charges need not balance.

assay: oleate-induced lipid droplet accumulation in AML12 cells – imaging, high-throughput imaging, BODIPY stain, primary screen (AID 1656); settings: AML12 mouse hepatocytes, oleate lipid droplets, measured here: cell count, cytotoxicity flag, at 6.5 µM;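 also: cells counted across two imaged fields per well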

Structure (SMILES) | cell count
O=[As](O)(c1ccccc1)c1ccc(O)cc1 | 575 cells
Cc1cc(-c2cccc3ccccc23)c(C)cn1.O=[N+]([O-])c1cc([N+](=O)[O-])c(O)c([N+](=O)[O-])c1 | 735 cells
O=[N+]([O-])c1cc([N+](=O)[O-])c(NCC2CCS(=O)(=O)C2)c([N+](=O)[O-])c1 (stereo unspecified) | 624 cells
O=[N+]([O-])c1ccc(O)c(/C=N/Nc2ccc([N+](=O)[O-])cc2[N+](=O)[O-])c1 | 856 cells
O=[N+]([O-])c1ccc(OP2(=O)COCCO2)cc1 (stereo unspecified) | 661 cells
CC(=O)NC(SC(=S)N(C)C)C(Cl)(Cl)Cl (stereo unspecified) | 744 cells
O=[N+]([O-])c1ncn(CCn2cnc([N+](=O)[O-])n2)n1 | 707 cells
O=C(OC1CN2CCC1CC2)c1cccc(Cl)c1 (stereo unspecified) | 787 cells
C(Cc1nn[nH]n1)Cc1nn[nH]n1 | 657 cells
Nc1ccc([As](=O)(O)c2ccc([N+](=O)[O-])cc2)cc1 | 733 cells
O=P(Nc1ccccn1)(c1ccc(Br)cc1)c1ccc(Br)cc1 | 622 cells
CN(C)C1(CNC(=O)c2ccc(Cl)c(S(N)(=O)=O)c2)CCCCC1 | 860 cells
COc1ccc(NP(C)(=O)Oc2ccccc2OC)cc1 (stereo unspecified) | 676 cells
CN(C)CCOC(=O)C(O)(c1ccccc1)C1CCCCC1 (stereo unspecified) | 724 cells
O=P(Nc1nc2ccccc2s1)(c1ccccc1)c1ccccc1 | 781 cells
C[C@H]1OP(=O)(Oc2ccccc2)[C@H](O)[C@H](O)[C@H]1N=[N+]=[N-] (stereo partly specified) | 666 cells
CP(=O)(Nc1ccc2c(c1)OCCO2)Oc1ccccc1 (stereo unspecified) | 753 cells
Cc1ccccc1NP(C)(=O)Nc1ccccc1C | 762 cells
CC(C)C(=O)NC(Sc1ccccc1)C(Cl)(Cl)Cl (stereo unspecified) | 627 cells
O=P(Nc1nccs1)(c1ccccc1)c1ccccc1 | 763 cells
CP(=O)(Nc1ccc(SC(F)(F)F)cc1)Oc1ccc(F)cc1 (stereo unspecified) | 693 cells
c1nnnn1CCn1cnnn1 | 746 cells
CCOP(C)(=S)SCC(=O)NC(C)(CC)C(=O)O (stereo unspecified) | 676 cells
O=C(OCCN1CCN(CCOCc2ccccc2)CC1)C(O)(c1ccccc1)c1ccccc1 | 621 cells

Structure (SMILES) | cell count
C[C@H]1OP(=O)(Oc2ccccc2)C[C@@H]2O[C@@H]21 (stereo partly specified) | 705 cells
C[C@@H]1C=CCP(=O)(Oc2ccccc2)O1 (stereo partly specified) | 641 cells
O=C(OC1CN2CCC1CC2)c1ccc([N+](=O)[O-])cc1 (stereo unspecified) | 726 cells
CC(=O)Nc1ccc([As](=O)(O)O)c(O)c1 | 696 cells
COc1ccc2c(c1O)-c1c(O)c(OC)cc3c1[C@H](C2)[N+](C)(C)CC3.O=[N+]([O-])c1cc([N+](=O)[O-])c([O-])c([N+](=O)[O-])c1[O-] | 751 cells
CC(=O)Nc1ccc(Oc2c([N+](=O)[O-])cc([N+](=O)[O-])cc2[N+](=O)[O-])cc1 | 673 cells
O=P1(Nc2nc3ccc(Cl)cc3s2)COc2ccccc2O1 (stereo unspecified) | 704 cells
CCOc1ccc(C2=NCC(CBr)S2)cc1 (stereo unspecified) | 679 cells
CC(C)(C)C(=O)NC(Sc1ccccc1)C(Cl)(Cl)Cl (stereo unspecified) | 695 cells
CC(C)c1ccc(OP(C)(=O)Nc2ccc(SC(F)(F)F)cc2)cc1 (stereo unspecified) | 339 cells
CCN(CC)CCCOC(=O)C(O)(c1ccccc1)C1CCCCC1 (stereo unspecified) | 567 cells
CC(=O)NC(SC(=S)N(CC(C)C)CC(C)C)C(Cl)(Cl)Cl (stereo unspecified) | 728 cells
Cc1ccc(OP(=O)(Nc2ccccn2)Oc2ccc(C)cc2)cc1 | 663 cells
Cc1ccccc1OP(=O)(Nc1ccccn1)Oc1ccccc1C | 697 cells
O=[N+]([O-])c1cc([N+](=O)[O-])c(OC2CCCCC2O)c([N+](=O)[O-])c1 (stereo unspecified) | 794 cells
O=c1c2cc([N+](=O)[O-])ccc2[nH]c2c([N+](=O)[O-])cc([N+](=O)[O-])cc12 | 731 cells
CCCCCOc1ccc(NP(C)(=O)Oc2ccc(Cl)cc2Cl)cc1 (stereo unspecified) | 684 cells
CN(C)C(=O)Oc1noc2ccccc12 | 684 cells
c1ccc(-c2nn[nH]n2)c(-c2nn[nH]n2)c1 | 688 cells
Cc1ccc(NP(=O)(Oc2cccc(C)c2)Oc2cccc(C)c2)nc1 | 715 cells
CCNC(=S)/N=C(\N)N[N+](=O)[O-] | 705 cells
O=C(NC1CCS(=O)(=O)C1)NP(=S)(Oc1ccccc1)Oc1ccccc1 (stereo unspecified) | 673 cells
COc1ccc(OP(C)(=O)Nc2ccc(SC(F)(F)F)cc2)cc1 (stereo unspecified) | 691 cells
CCOC(=O)c1ccc(NP(C)(=O)Oc2ccc(F)cc2)cc1 (stereo unspecified) | 745 cells

Structure (SMILES) | cell count
O=[N+]([O-])c1cc([N+](=O)[O-])c(CCN2CCOCC2)c([N+](=O)[O-])c1 | 841 cells
Nc1cccc2ccc([As](=O)(O)O)cc12 | 723 cells
CP(=O)(Nc1ccc(Cl)cc1Cl)Oc1ccccc1 (stereo unspecified) | 688 cells
CP(=O)(OCCOc1ccccc1)OCCOc1ccccc1 | 679 cells
CCN(N=Nc1nonc1N)c1nonc1N | 654 cells
O=P(Nc1nc2ccc(Cl)cc2s1)(c1ccccc1)c1ccccc1 | 518 cells
Cc1cc(C)cc(OP(C)(=O)Nc2cccc(C(F)(F)F)c2)c1 (stereo unspecified) | 707 cells
CC(=O)Nc1ccc([As](=O)(O)O)cc1 | 667 cells
O=C(O)c1ccccc1[As](=O)(O)O | 719 cells
COc1ccc(OP(C)(=O)Nc2ccccc2Br)cc1 (stereo unspecified) | 594 cells
Cc1cc(SC(NC(=O)c2ccc(F)cc2)C(Cl)(Cl)Cl)ncn1 (stereo unspecified) | 600 cells
CCOP(=O)(Nc1ccccc1)OCC | 772 cells and 728 cells
Cc1ccc(NP(=O)(Oc2ccccc2F)Oc2ccccc2F)nc1 | 678 cells
Oc1ccccc1CNc1ccccn1 | 800 cells
O=C(NC(Sc1ccncn1)C(Cl)(Cl)Cl)c1ccccc1 (stereo unspecified) | 588 cells
Nc1cc(N)c2nonc2c1[N+](=O)[O-] | 687 cells
O=[N+]([O-])c1cc([N+](=O)[O-])c(Nc2ccccn2)c([N+](=O)[O-])c1 | 589 cells
CP(=O)(Nc1ccccn1)Oc1ccccc1 (stereo unspecified) | 544 cells
COc1ccccc1OP(C)(=O)Nc1ccc(Br)cc1 (stereo unspecified) | 725 cells
Cc1ccc(N/C(=N/P(=O)(N2CCOCC2)N2CCOCC2)N2CCOCC2)cc1 | 704 cells
NC(=O)c1cc([N+](=O)[O-])cc([N+](=O)[O-])c1N | 724 cells
CN1CCCC(OC(=O)C(c2ccccc2)c2ccccc2)C1 (stereo unspecified) | 707 cells
Clc1ccc(Cl)c(NC2=NCC(CBr)S2)c1 (stereo unspecified) | 722 cells
CN(C)CCOC(=O)C(O)(c1ccccc1)C1CCCC1 (stereo unspecified) | 774 cells

Structure (SMILES) | cell count
COc1ccccc1OP(=O)(Nc1ccc(C)cn1)Oc1ccccc1OC | 717 cells
COc1ccc(OP(C)(=O)Nc2ccccn2)cc1 (stereo unspecified) | 746 cells
Cc1ccc(OP(=O)(Nc2nccs2)Oc2ccc(C)cc2)cc1 | 766 cells
CCN(/C(=N/P(=O)(N1CCOCC1)N1CCOCC1)N1CCOCC1)c1ccc(OC)cc1 | 723 cells
COc1ccccc1OP(C)(=O)Nc1ccccc1Br (stereo unspecified) | 714 cells
CC(C)(C)c1ccc(OP(C)(=O)O)cc1 | 835 cells
Nc1ccc([As](=O)(O)c2ccc(N)cc2)cc1 | 697 cells
C[N+]1=C2C=CC=CC=C2SC12C([N+](=O)[O-])=CC([N+](=O)[O-])=C[C-]2[N+](=O)[O-] (stereo unspecified) | 805 cells
CN(C)C(=O)c1c([N+](=O)[O-])cc([N+](=O)[O-])cc1[N+](=O)[O-] | 772 cells
CC(C)=N/N=C(\N)N[N+](=O)[O-] | 654 cells
CN(C)C(=O)OCCc1n(C)cc[n+]1C | 629 cells
COc1ccc(C2=NCC(CBr)S2)cc1 (stereo unspecified) | 703 cells
COc1ccc(OP(C)(=O)Nc2ccc(Br)cc2)cc1 (stereo unspecified) | 610 cells
Cc1ccc(NP(=O)(Oc2ccccc2)Oc2ccccc2)nc1 | 686 cells
CCc1ccc(OP(C)(=O)Nc2cccnc2)cc1 (stereo unspecified) | 719 cells
O=[N+]([O-])c1cc([N+](=O)[O-])c(CCNc2ccccc2)c([N+](=O)[O-])c1 | 752 cells
O=[N+]([O-])c1cccc2n[nH]nc12 | 789 cells
O=C(OCCCN1CCCC1)C(O)(c1ccccc1)C1CCCCC1 (stereo unspecified) | 722 cells
O=[N+]([O-])c1ncn(CCn2ncnc2[N+](=O)[O-])n1 | 699 cells
CC(C)(C)C(=O)NC(Sc1ccncn1)C(Cl)(Cl)Cl (stereo unspecified) | 681 cells
O=C(O)CNc1ccc([As](=O)(O)O)cc1 | 708 cells
O=[N+]([O-])c1cccc(NC2=NCC(CBr)S2)c1 (stereo unspecified) | 784 cells
CP(=O)(OC12CC3CC(CC(C3)C1)C2)OC12CC3CC(CC(C3)C1)C2 | 762 cells
CCOC(=O)c1ccc(NP(C)(=O)Oc2ccc(Cl)cc2)cc1 (stereo unspecified) | 631 cells

Structure (SMILES) | cell count
O=C(Nc1cc([As](=O)(O)O)ccc1O)c1ccccc1 | 736 cells
CP(=S)(Nn1cnnc1)Oc1ccccc1 (stereo unspecified) | 701 cells
CCOC(=O)Nc1cccc([As](=O)(O)O)c1 | 846 cells
O=P(Nc1ccccn1)(c1cccc2ccccc12)c1cccc2ccccc12 | 679 cells
Cc1cc(SC(NC=O)C(Cl)(Cl)Cl)ncn1 (stereo unspecified) | 678 cells
COc1ccccc1OP(C)(=O)Nc1ccccc1 (stereo unspecified) | 751 cells
CP(=O)(Nc1ccccc1Br)Oc1ccccc1 (stereo unspecified) | 727 cells
O=[N+]([O-])c1ccc(Nc2ccc(Oc3ccc([N+](=O)[O-])cc3[N+](=O)[O-])cc2)c([N+](=O)[O-])c1 | 625 cells
CCOC(=O)Nc1ccc([As](=O)(O)O)c(O)c1 | 742 cells
CCCCOc1ccc(C(=O)NCC2(N3CCCCC3)CCCCC2)cc1OC | 752 cells
Cc1cc(SC(NC(=O)c2ccccc2)C(Cl)(Cl)Cl)nc(C(C)C)n1 (stereo unspecified) | 621 cells
O=C(OC1CN2CCC1CC2)c1cccc([N+](=O)[O-])c1 (stereo unspecified) | 827 cells
CCOC(=O)c1ccc(NC(=O)C(C)(CCl)SC)cc1 (stereo unspecified) | 690 cells
CCOC(=O)c1ccc(NP(C)(=O)Oc2ccc(OC)cc2)cc1 (stereo unspecified) | 519 cells
CCC(C)N(CC(C)C)C(=S)SC(NC(C)=O)C(Cl)(Cl)Cl (stereo unspecified) | 718 cells
CP(=O)(Nc1ccccn1)Oc1ccc(Cl)cc1 (stereo unspecified) | 777 cells
COP1(=S)c2c(C)nn(CCC#N)c2N=C(c2ccc(F)cc2)N1C (stereo unspecified) | 755 cells
Cc1cccc(C)c1OP(C)(=O)Nc1ccc(SC(F)(F)F)cc1 (stereo unspecified) | 690 cells
CP(=O)(Oc1ccccc1)OC(c1ccccc1)C(F)(F)F (stereo unspecified) | 673 cells
O=C(COc1ccccc1)OC1CN2CCC1CC2 (stereo unspecified) | 682 cells
